Measured values published in the supplement of paper PMC10849652.
This is one part of the list.

Sequences of proteins named here, by UniProt entry; tags and fusion partners are left off. A change or cut given only in a name is not applied to a line headed by its entry.
UniProt Q9NVT9: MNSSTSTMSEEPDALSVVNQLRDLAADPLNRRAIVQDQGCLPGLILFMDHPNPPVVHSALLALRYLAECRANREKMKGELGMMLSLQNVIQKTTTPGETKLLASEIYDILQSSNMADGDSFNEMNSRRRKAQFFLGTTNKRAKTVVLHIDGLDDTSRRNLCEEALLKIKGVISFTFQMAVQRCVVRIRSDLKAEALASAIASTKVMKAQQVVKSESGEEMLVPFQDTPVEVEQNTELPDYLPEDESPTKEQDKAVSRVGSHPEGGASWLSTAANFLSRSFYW
UniProt P54707, whole entry, looked up: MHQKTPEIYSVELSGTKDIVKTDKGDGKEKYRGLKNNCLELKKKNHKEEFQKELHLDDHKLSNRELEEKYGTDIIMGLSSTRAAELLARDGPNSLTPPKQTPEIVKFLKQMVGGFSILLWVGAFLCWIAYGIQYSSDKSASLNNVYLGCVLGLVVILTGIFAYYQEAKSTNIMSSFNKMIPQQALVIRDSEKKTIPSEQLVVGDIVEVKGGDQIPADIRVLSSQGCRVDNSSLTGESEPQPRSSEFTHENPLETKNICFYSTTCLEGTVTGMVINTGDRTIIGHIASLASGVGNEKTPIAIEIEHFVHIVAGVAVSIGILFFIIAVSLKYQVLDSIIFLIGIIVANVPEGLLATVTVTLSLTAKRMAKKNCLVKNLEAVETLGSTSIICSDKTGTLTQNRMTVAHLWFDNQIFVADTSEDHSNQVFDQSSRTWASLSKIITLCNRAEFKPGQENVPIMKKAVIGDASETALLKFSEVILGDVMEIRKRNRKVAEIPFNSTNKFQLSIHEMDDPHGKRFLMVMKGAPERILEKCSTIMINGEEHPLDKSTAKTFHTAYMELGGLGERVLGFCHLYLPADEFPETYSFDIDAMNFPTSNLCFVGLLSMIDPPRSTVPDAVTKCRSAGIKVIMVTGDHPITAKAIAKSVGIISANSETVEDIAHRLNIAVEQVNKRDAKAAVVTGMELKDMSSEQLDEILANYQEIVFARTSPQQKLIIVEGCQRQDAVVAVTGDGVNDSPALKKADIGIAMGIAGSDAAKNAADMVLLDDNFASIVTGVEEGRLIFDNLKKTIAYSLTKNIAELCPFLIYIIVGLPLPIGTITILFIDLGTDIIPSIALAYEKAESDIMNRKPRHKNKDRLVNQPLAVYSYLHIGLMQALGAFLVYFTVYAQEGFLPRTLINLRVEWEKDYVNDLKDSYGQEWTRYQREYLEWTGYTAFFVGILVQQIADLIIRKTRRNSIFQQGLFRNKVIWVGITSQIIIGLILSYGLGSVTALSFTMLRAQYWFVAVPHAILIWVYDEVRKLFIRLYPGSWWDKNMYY
UniProt Q9H7F0: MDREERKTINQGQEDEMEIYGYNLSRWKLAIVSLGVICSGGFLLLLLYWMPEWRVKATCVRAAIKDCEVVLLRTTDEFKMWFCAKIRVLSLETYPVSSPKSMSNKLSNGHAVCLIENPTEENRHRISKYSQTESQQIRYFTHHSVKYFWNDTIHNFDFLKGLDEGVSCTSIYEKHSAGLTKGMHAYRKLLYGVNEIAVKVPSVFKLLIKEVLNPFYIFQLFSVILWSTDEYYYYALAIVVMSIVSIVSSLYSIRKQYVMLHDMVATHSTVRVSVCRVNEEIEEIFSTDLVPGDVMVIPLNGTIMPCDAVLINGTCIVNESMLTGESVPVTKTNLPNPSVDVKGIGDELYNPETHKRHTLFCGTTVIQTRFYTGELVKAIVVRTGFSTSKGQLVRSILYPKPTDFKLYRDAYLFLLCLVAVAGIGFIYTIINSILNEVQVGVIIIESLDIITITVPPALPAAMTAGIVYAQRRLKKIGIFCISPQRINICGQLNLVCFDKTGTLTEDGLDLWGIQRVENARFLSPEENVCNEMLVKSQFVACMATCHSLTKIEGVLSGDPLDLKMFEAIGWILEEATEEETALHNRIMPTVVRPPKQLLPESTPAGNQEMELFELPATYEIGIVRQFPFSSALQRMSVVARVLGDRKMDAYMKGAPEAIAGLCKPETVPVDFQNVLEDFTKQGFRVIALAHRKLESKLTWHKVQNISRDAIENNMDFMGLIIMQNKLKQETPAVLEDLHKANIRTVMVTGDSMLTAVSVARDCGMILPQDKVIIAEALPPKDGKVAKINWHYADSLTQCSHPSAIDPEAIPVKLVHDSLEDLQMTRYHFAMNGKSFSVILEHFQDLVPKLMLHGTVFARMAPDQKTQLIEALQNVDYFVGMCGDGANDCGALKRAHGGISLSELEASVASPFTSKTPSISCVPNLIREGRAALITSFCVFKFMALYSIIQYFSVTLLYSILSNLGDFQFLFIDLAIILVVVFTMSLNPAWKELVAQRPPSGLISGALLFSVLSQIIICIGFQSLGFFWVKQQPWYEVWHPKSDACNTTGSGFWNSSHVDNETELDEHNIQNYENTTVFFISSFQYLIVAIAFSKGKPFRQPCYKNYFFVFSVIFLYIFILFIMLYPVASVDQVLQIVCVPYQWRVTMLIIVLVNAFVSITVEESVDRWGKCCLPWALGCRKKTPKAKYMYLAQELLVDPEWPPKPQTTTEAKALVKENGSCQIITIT
UniProt Q9NQ11: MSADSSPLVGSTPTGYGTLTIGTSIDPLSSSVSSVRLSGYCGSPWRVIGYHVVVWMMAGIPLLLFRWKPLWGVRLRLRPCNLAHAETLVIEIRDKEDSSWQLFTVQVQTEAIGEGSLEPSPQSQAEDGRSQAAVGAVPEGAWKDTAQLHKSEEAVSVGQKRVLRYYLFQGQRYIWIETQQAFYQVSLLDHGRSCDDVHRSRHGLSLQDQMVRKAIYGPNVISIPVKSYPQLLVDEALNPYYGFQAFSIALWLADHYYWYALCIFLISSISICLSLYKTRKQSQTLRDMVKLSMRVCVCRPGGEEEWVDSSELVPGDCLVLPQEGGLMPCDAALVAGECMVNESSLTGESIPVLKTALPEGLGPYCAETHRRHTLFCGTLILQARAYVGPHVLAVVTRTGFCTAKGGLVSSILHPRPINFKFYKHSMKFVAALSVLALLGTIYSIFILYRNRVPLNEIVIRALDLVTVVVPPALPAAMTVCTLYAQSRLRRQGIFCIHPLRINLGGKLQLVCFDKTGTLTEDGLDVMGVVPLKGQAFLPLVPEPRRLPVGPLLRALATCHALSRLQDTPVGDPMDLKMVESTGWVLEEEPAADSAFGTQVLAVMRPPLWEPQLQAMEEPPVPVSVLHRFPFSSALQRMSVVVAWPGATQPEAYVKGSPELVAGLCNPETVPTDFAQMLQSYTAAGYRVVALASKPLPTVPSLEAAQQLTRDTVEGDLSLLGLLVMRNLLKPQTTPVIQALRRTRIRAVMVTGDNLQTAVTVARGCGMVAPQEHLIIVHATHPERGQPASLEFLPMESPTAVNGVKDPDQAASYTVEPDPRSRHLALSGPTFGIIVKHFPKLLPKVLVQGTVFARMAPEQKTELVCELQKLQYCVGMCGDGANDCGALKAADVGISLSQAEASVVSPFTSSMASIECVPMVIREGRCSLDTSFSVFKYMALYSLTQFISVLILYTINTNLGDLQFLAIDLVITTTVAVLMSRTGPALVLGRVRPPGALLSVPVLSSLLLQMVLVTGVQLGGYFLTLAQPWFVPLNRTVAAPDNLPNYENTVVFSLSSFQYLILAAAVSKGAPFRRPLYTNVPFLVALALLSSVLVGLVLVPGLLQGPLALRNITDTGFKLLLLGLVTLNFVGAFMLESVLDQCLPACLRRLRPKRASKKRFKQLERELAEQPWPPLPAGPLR
UniProt Q13733, whole entry, looked up: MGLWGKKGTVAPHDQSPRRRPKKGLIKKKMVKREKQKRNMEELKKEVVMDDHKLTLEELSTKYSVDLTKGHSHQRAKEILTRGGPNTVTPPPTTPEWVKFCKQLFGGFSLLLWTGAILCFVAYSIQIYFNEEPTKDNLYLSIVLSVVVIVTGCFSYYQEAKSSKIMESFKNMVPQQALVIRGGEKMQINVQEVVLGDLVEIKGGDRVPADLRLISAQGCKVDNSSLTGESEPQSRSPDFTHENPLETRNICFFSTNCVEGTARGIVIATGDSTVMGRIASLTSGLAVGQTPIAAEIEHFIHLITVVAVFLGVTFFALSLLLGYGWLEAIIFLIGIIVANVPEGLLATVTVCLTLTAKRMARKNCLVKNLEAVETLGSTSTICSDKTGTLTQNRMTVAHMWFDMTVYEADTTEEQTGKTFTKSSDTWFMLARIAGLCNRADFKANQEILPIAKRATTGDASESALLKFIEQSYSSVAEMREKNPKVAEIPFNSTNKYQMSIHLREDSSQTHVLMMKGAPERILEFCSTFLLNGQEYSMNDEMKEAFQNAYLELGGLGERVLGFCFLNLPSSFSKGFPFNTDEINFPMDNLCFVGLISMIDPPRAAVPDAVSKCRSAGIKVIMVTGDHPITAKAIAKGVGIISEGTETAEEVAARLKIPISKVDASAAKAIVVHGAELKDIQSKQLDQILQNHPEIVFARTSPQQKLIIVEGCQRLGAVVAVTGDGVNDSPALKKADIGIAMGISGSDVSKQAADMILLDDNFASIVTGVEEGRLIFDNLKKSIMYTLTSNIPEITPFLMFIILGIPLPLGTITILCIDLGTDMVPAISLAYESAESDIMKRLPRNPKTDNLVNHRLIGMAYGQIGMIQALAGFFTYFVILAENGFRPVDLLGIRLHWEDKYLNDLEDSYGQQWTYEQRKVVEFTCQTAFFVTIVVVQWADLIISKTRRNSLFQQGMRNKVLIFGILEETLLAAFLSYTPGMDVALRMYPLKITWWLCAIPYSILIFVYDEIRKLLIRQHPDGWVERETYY
UniProt Q93084: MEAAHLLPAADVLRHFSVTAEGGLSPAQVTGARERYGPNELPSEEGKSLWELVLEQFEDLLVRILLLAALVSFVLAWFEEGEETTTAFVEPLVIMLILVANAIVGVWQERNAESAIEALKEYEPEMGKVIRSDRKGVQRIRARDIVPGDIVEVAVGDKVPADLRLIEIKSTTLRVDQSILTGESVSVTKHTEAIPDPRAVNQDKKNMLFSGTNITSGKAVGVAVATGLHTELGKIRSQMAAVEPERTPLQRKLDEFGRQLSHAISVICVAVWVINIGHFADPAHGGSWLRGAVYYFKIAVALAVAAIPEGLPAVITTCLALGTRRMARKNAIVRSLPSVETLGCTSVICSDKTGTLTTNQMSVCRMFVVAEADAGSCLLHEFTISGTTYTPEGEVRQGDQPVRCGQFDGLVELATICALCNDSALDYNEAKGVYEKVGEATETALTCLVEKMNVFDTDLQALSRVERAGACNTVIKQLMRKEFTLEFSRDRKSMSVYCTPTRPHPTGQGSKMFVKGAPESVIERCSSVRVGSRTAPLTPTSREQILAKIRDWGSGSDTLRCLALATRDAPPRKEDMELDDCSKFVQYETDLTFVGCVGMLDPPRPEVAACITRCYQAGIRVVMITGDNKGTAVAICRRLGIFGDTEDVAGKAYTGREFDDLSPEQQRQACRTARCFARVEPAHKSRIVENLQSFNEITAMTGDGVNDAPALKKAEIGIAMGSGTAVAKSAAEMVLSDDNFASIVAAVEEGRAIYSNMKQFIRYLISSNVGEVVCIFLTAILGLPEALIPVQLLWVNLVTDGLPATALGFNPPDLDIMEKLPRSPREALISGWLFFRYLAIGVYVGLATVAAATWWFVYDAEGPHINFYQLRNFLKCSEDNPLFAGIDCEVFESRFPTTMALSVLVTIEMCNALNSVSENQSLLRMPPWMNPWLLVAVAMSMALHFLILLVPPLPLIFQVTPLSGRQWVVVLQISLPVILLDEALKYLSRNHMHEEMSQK
UniProt P14415, whole entry, looked up: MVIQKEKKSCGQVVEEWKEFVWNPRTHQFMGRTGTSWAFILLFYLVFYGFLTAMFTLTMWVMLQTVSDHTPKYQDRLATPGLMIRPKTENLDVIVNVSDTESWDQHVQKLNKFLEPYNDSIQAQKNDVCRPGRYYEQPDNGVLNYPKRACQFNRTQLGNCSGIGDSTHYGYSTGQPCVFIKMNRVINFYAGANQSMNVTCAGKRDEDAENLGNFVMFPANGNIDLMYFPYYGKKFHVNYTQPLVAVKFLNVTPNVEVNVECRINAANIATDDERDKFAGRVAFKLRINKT

Tests used:
Test in all cases: log2 fold change, soluble protein after heating vs DMSO (PISA); higher = thermal stabilisation; K562 cells, 10 uM, 30 min; active = over 0.2 and 3.5 SD of the protein, either way, in both replicates (recomputed)
[1] = compound: COC1=CC=C(C=C1)CN2C=CC3=C2C=C(C=C3)C(=O)NO
How it was run: (§1)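 Quantification of soluble protein used TMTpro 16plex LC-MS/MS, with channel sums equalised. Samples were the supernatant after 21,000xg for 90 min of pooled aliquots from K562 cells (2×10^6 cells/mL) treated with 10 μM compound for 30 min, heated for 3 min over 48°C-58°C, and extracted in PBS with 0.5% NP-40 at 4°C. Values, from duplicates, describe thermal stability against control samples on a log2 fold-change scale.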

filanesib = compound: CON(C)C(=O)N1N=C(c2cc(F)ccc2F)S[C@@]1(CCCN)c1ccccc1 [filanesib]
How it was run: as §1

zotarolimus = compound: CO[C@H]1C[C@@H]2CC[C@@H](C)[C@@](O)(O2)C(=O)C(=O)N2CCCC[C@H]2C(=O)O[C@H]([C@H](C)C[C@@H]2CC[C@H](n3cnnn3)[C@H](OC)C2)CC(=O)[C@H](C)/C=C(\C)[C@@H](O)[C@@H](OC)C(=O)[C@H](C)C[C@H](C)/C=C/C=C/C=C/1C [zotarolimus]
How it was run: as §1

idasanutlin = compound: COc1cc(C(=O)O)ccc1NC(=O)[C@@H]1N[C@@H](CC(C)(C)C)[C@](C#N)(c2ccc(Cl)cc2F)[C@H]1c1cccc(Cl)c1F [idasanutlin]
How it was run: as §1

alisertib = compound: COc1cc(Nc2ncc3c(n2)-c2ccc(Cl)cc2C(c2c(F)cccc2OC)=NC3)ccc1C(=O)O [alisertib]
How it was run: as §1

[2] = compound: COc1cc2nc(-c3cc(F)ccc3O)nc(N[C@@H]3CNC[C@H]3C(C)(C)O)c2cc1OC
How it was run: as §1

gefitinib = compound: COc1cc2ncnc(Nc3ccc(F)c(Cl)c3)c2cc1OCCCN1CCOCC1 [gefitinib]
How it was run: as §1

[3] = compound: COc1cccc2cc(-c3nc([C@H]4CC[C@H](C(=O)O)CC4)n4ncnc(N)c34)[nH]c12
How it was run: as §1

lapatinib = compound: CS(=O)(=O)CCNCc1ccc(-c2ccc3ncnc(Nc4ccc(OCc5cccc(F)c5)c(Cl)c4)c3c2)o1 [lapatinib]
How it was run: as §1

pictilisib = compound: CS(=O)(=O)N1CCN(Cc2cc3nc(-c4cccc5[nH]ncc45)nc(N4CCOCC4)c3s2)CC1 [pictilisib]
How it was run: as §1

[4] = compound: CS(=O)(=O)c1ccc(-c2cnc(N)c(C(=O)Nc3ccccc3)n2)cc1
How it was run: as §1

crizotinib = compound: C[C@@H](Oc1cc(-c2cnn(C3CCNCC3)c2)cnc1N)c1c(Cl)ccc(F)c1Cl [crizotinib]
How it was run: as §1

[5] = compound: C[C@@H]1COCCN1C2=NC(=NC(=C2)C3(CC3)S(=O)(=O)C)C4=C5C=CNC5=CC=C4
How it was run: as §1

[6] = compound: C[C@H](C1=CC=C(C=C1)C(=O)NC2=C3C=CNC3=NC=C2)N
How it was run: as §1

duvelisib = compound: C[C@H](Nc1ncnc2nc[nH]c12)c1cc2cccc(Cl)c2c(=O)n1-c1ccccc1 [duvelisib]
How it was run: as §1

gandotinib = compound: Cc1cc(Nc2cc(CN3CCOCC3)c3nc(C)c(Cc4ccc(Cl)cc4F)n3n2)n[nH]1 [gandotinib]
How it was run: as §1

tozasertib = compound: Cc1cc(Nc2cc(N3CCN(C)CC3)nc(Sc3ccc(NC(=O)C4CC4)cc3)n2)n[nH]1 [tozasertib]
How it was run: as §1

[7] = compound: Cc1cc(SCc2sc(-c3ccc(C(F)(F)F)cc3)nc2C)ccc1OCC(=O)O
How it was run: as §1

doramapimod = compound: Cc1ccc(-n2nc(C(C)(C)C)cc2NC(=O)Nc2ccc(OCCN3CCOCC3)c3ccccc23)cc1 [doramapimod]
How it was run: as §1

ispinesib = compound: Cc1ccc(C(=O)N(CCCN)[C@@H](c2nc3cc(Cl)ccc3c(=O)n2Cc2ccccc2)C(C)C)cc1 [ispinesib]
How it was run: as §1

Measured: log2 fold change

ARMC1 (UniProt Q9NVT9)
inactive: [1] 0.005 | filanesib -0.139 | zotarolimus 0.003 | idasanutlin -0.122 | alisertib 0.005 | [2] -0.111 | gefitinib 0.026 | [3] -0.006 | lapatinib 0.026 | pictilisib -0.028 | [4] -0.024 | crizotinib -0.118 | [5] 0.047 | [6] -0.045 | duvelisib -0.013 | gandotinib -0.035 | tozasertib -0.006 | [7] 0.064 | doramapimod -0.05 | ispinesib -0.079

ATIC (UniProt P31939)
inactive: [1] 0.047 | filanesib -0.039 | zotarolimus 0.046 | idasanutlin -0.03 | alisertib -0.092 | [2] -0.027 | gefitinib 0.114 | [3] -0.008 | lapatinib -0.001 | pictilisib -0.008 | [4] 0.108 | crizotinib 0.092 | [5] 0.101 | [6] -0.083 | gandotinib 0.066 | [7] -0.015 | doramapimod -0.029 | ispinesib 0.096

ATP6V0A1 isoform 3 (UniProt Q93050)
inactive: [1] 0.021 | filanesib -0.105 | zotarolimus 0.073 | idasanutlin 0.112 | alisertib 0.027 | [2] -0.298 | gefitinib -0.18 | [3] -0.21 | lapatinib 0.033 | pictilisib -0.284 | [4] -0.041 | crizotinib -0.349 | [5] -0.27 | [6] 0.225 | gandotinib 0.094 | [7] 0.144 | doramapimod 0.152
active: ispinesib -0.446

ATP7B (UniProt P35670)
active: idasanutlin -0.233
inactive: [1] -0.02 | filanesib 0.087 | zotarolimus -0.075 | alisertib -0.02 | [2] -0.011 | gefitinib 0.028 | [3] 0.026 | lapatinib 0.061 | pictilisib 0.061 | [4] -0.009 | crizotinib -0.005 | [5] 0.03 | [6] 0.065 | gandotinib -0.141 | [7] -0.014 | doramapimod 0.137 | ispinesib -0.015

ATP12A isoform 2 (UniProt P54707)
inactive: [1] -0.034 | filanesib -0.015 | zotarolimus -0.015 | idasanutlin 0.016 | alisertib -0.008 | [2] 0.071 | gefitinib 0.032 | [3] 0.043 | lapatinib -0.074 | pictilisib 0.1 | [4] 0.02 | crizotinib 0.162 | [5] 0.138 | [6] -0.087 | gandotinib -0.047 | [7] -0.056 | doramapimod -0.004 | ispinesib 0.137

Two successive records already listed:
ATP6V0A1 isoform 3 (UniProt Q93050)
inactive: [1] 0.021 | filanesib -0.105 | zotarolimus 0.073 | idasanutlin 0.112 | alisertib 0.027 | [2] -0.298 | gefitinib -0.18 | [3] -0.21 | lapatinib 0.033 | pictilisib -0.284 | [4] -0.041 | crizotinib -0.349 | [5] -0.27 | [6] 0.225 | gandotinib 0.094 | [7] 0.144 | doramapimod 0.152
active: ispinesib -0.446

ATP7B (UniProt P35670)
active: idasanutlin -0.233
inactive: [1] -0.02 | filanesib 0.087 | zotarolimus -0.075 | alisertib -0.02 | [2] -0.011 | gefitinib 0.028 | [3] 0.026 | lapatinib 0.061 | pictilisib 0.061 | [4] -0.009 | crizotinib -0.005 | [5] 0.03 | [6] 0.065 | gandotinib -0.141 | [7] -0.014 | doramapimod 0.137 | ispinesib -0.015

(further entries)

ATP13A3 (UniProt Q9H7F0)
inactive: [1] -0.034 | filanesib 0.054 | zotarolimus -0.158 | idasanutlin -0.027 | alisertib -0.098 | [2] -0.078 | gefitinib -0.02 | [3] -0.038 | lapatinib 0.005 | pictilisib 0.104 | [4] 0.076 | crizotinib -0.251 | [5] -0.037 | [6] 0.056 | gandotinib 0 | [7] -0.043 | doramapimod 0.045 | ispinesib -0.251

ATP13A2 (UniProt Q9NQ11)
active: ispinesib -0.363
inactive: [1] 0.053 | filanesib -0.134 | zotarolimus 0.023 | idasanutlin 0.027 | alisertib -0.143 | [2] 0.019 | gefitinib -0.005 | [3] 0.053 | lapatinib -0.005 | pictilisib 0.066 | [4] -0.012 | crizotinib -0.214 | [5] 0.031 | [6] 0.008 | gandotinib 0.01 | [7] 0.018 | doramapimod 0.025

ATP1A4 (UniProt Q13733)
inactive: [1] 0.042 | filanesib 0.006 | zotarolimus 0.006 | idasanutlin 0.063 | alisertib -0.083 | [2] 0.003 | gefitinib 0.057 | [3] -0.024 | lapatinib -0.01 | pictilisib 0.016 | [4] -0.013 | crizotinib 0.091 | [5] -0.067 | [6] -0.066 | gandotinib -0.026 | [7] 0.038 | doramapimod -0.086 | ispinesib 0.032

ASNS (UniProt P08243)
inactive: [1] 0.027 | filanesib -0.073 | zotarolimus -0.002 | idasanutlin -0.021 | alisertib -0.027 | [2] 0.02 | gefitinib -0.032 | [3] 0.034 | lapatinib -0.017 | pictilisib 0.019 | [4] 0.003 | crizotinib -0.015 | [5] 0.044 | [6] -0.045 | gandotinib 0.002 | [7] -0.016 | doramapimod -0.026 | ispinesib 0.031

ATP2A3 isoform 2 (UniProt Q93084)
inactive: [1] -0.016 | filanesib -0.118 | zotarolimus -0.009 | idasanutlin -0.027 | alisertib -0.082 | [2] -0.004 | gefitinib -0.029 | [3] 0.02 | lapatinib -0.002 | pictilisib 0.027 | [4] -0.003 | crizotinib 0.084 | [5] -0.048 | [6] -0.022 | gandotinib -0.068 | [7] -0.025 | doramapimod -0.023 | ispinesib -0.091

ATP5F1B (UniProt H0YI37)
inactive: filanesib 0.121 | [2] 0.237 | lapatinib -0.379 | pictilisib 0.177 | [4] 0.265 | [5] -0.094 | duvelisib 0.346 | gandotinib -0.032 | [7] -0.343

ATP1B2 (UniProt P14415)
inactive: [1] -0.014 | filanesib -0.127 | zotarolimus -0.153 | idasanutlin 0.15 | alisertib -0.049 | [2] -0.022 | [3] 0.013 | lapatinib -0.104 | pictilisib 0.095 | [4] -0.01 | crizotinib 0.189 | [5] 0.068 | [6] 0.125 | duvelisib 0.053 | gandotinib -0.024 | tozasertib -0.137 | [7] 0.029 | doramapimod -0.189 | ispinesib 0.057
